In patent US20240139167A1, “LYSOSOME-ASSOCIATED MEMBRANE PROTEIN TARGETING COMPOUNDS AND USES THEREOF” (HADASIT MEDICAL RESEARCH SERVICES AND DEVELOPMENT LTD., priority 2021, published 2024):

Tested on: APBD patient fibroblast protein homogenates
Test: Target identification by nematic protein organization technique (NPOT)
Parameters: species or system human

COCCN(Cc1sccc1C)C(=O)c1cc(C)nc(O)c1 [Compound 1]
number of interacting proteins belonging to the autophagosomal-autolysosomal pathway: 8 | number of proteins found to interact specifically (10^−6 M): 28
